# Measured values from PubChem BioAssay AID504444 (National Center for Advancing Translational Sciences (NCATS), 2011).
# Out of some 360,000 compounds screened, about 7,500 (2.1%) were called active. Inconclusive means that the source gave no clear call. Such entries were picked first, then a sample of the others. The call rests on the fitted dose curve; in most records, active means well fitted inhibition curve with a large enough effect; inconclusive means small, poorly fitted or top-dose-only effect, or effect the other way; inactive means flat fitted curve, though single readings scatter. A potency beside an inconclusive call is a rough fit, not a confirmed value.
# Assay: Nrf2 qHTS screen for inhibitors; further: nearly all actives have a fitted effect of over 60% in size
# Details: A549 ARE-Fluc reporter, luciferase luminescence, 18-24 h; series mostly up to 46 µM
# Procedure, shortened: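 Two sequential reads on A549 ARE_Fluc cells exposed to compound for 18-24 h: a CellTiter-Fluor fluorescence read for viability, then a luciferase luminescence read for Nrf2/ARE activity.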
# Potency means the concentration at half of the fitted maximal effect.
row,Structure (SMILES),Potency
1,O=S(=O)(Nc1nc2ccccc2nc1NCc1ccco1)c1cccs1,"inconclusive: 20.6 µM [falling, partial curve]"
2,CCOc1ccccc1N(CC(=O)Nc1cc(OC)ccc1OC)S(C)(=O)=O,"inconclusive: 0.731 µM [falling, partial curve, poor fit]"
3,O=C(/C=C/c1cccs1)NC(=S)NNC(=O)Cc1cccs1,"inconclusive: 20.6 µM [falling, single point]"
4,Cc1cccc(N2CCN(C3(c4ccccc4)C(=O)c4ccccc4C3=O)CC2)c1C,inactive
5,CCCC(C(=O)NC(C)(C)C)N(CC1CCCO1)C(=O)CNS(=O)(=O)c1ccc(F)cc1 (configuration not stated),"inconclusive: 2.06 µM [falling, partial curve, poor fit]"
6,O=C(NCCc1nc2ccccc2n1CCO)C1CCCCC1,inactive
7,O=c1cc(-c2cccnc2)oc2c1ccc1ccccc12,"inconclusive: 8.2 µM [falling, partial curve]"
8,Cc1ccc(C)c(CSC2=NN3CCCC(=O)N=C3S2)c1,"inconclusive: 18.4 µM [activator, partial curve, poor fit]"
9,COc1cc(OC)c(N(C)S(=O)(=O)c2cccc(C(=O)Nc3nccs3)c2)cc1Cl,"inconclusive: 29.1 µM [falling, single point]"
10,COc1ccc(OCCSc2nnc(CCNC(=O)c3ccc(OC)cc3)n2C)cc1,"inconclusive: 8.2 µM [falling, partial curve, poor fit]"
11,c1csc(-c2nc(CN3CCSCC3)cs2)c1,"inconclusive: 5.17 µM [activator, partial curve]"
12,COc1ccc(CCNC(=O)c2c(C)nn(-c3ccc(F)cc3)c2-n2cccc2)cc1OC,inactive
13,Cc1ccc2onc(CC(=O)N(C)c3ccccc3)c2c1,"inconclusive: 2.06 µM [activator, partial curve]"
14,O=C(Nc1ccc(Br)cc1Cl)c1cnccn1,"inconclusive: 5.8 µM [activator, partial curve]"
15,O=C(CCc1nnc(C2(c3ccc(Cl)cc3)CCC2)o1)N1CCCC1,"inconclusive: 7.31 µM [activator, partial curve]"
16,O=C(Nc1ccc(OC(F)F)cc1)c1ncc(Cl)c(Cl)c1Cl,inactive
17,O=C(Nc1nonc1NC(=O)C1CCCCC1)C1CCCCC1,"inconclusive: 23.1 µM [falling, single point]"
18,Cc1c(/C=N/NC(=O)COc2ccccc2[N+](=O)[O-])c2ccccc2n1C,"inconclusive: 0.0651 µM [activator, full curve, poor fit]"
19,O=C(Nc1ccc(-c2nc3ncccc3o2)cc1)c1ccco1,inactive
20,COc1ccc(CC(=O)N/N=C(\C)c2cccc(NC(=O)C3CC3)c2)cc1,"inconclusive: 14.6 µM [falling, partial curve, poor fit]"
21,COc1ccc(C(=O)COC(=O)c2c(C)noc2C)cc1Cl,"inconclusive: 29.1 µM [activator, single point]"
22,CC1=C(C(=O)Nc2cc(C)ccn2)C(c2cnn(C)c2)C2=C(CC(c3ccccc3)CC2=O)N1 (configuration not stated),"inconclusive: 11.6 µM [falling, partial curve, poor fit]"
23,COc1ccc(NC(=O)C2CCCN(S(=O)(=O)c3ccc4c(c3)CCCN4C(C)=O)C2)cc1Cl (configuration not stated),active: 16.4 µM

row,Structure (SMILES),Potency
1,COc1ccc(NC(=O)C2CCN(c3nc(C)nc4c3CCC4)CC2)cc1,"inconclusive: 7.31 µM [falling, partial curve, poor fit]"
2,Cc1c(C)c2ccc(OCC(=O)N3CCN(c4ccccc4)CC3)cc2oc1=O,"inconclusive: 18.4 µM [falling, single point]"
3,CCOc1ccc(CNC(=O)c2ccc(NC(=O)N3CCCCc4ccccc43)cc2)cc1OC,"inconclusive: 18.4 µM [activator, single point]"
4,CN(C)S(=O)(=O)c1ccc(C(=O)Nc2ccnn2C2CCCCC2)cc1,"inconclusive: 29.1 µM [falling, single point]"
5,Cc1cccc(NS(=O)(=O)c2ccc(-n3cccn3)cc2)c1C,"inconclusive: 29.1 µM [falling, single point]"
6,Cc1nn(C)c2c1c(C(F)(F)F)cc(=O)n2Cc1cccc(Br)c1,"inconclusive: 6.51 µM [activator, partial curve, poor fit]"
7,Cc1ccc(OCCNC(=O)c2ccc3ccccc3n2)cc1,"inconclusive: 25.9 µM [activator, partial curve, poor fit]"
8,Cc1ccc(C#N)c(SCc2ccccc2F)n1,inactive
9,c1cc(N2CCCCC2)nc(N2CCCCC2)n1,"inconclusive: 23.1 µM [activator, partial curve, poor fit]"
10,CCOc1ccc(NC(=O)C2CCCN(S(=O)(=O)c3c(C)nn(C)c3C)C2)cc1 (configuration not stated),"inconclusive: 16.4 µM [falling, partial curve, poor fit]"
11,Cc1ccc(S(=O)(=O)N(C(=O)c2ccncc2)c2ccc(OC(=O)c3ccncc3)c3ccccc23)c(C)c1,inactive
12,Cc1cccc(N2CCN(C(=O)c3cccc(S(=O)(=O)N4CCCCC4)c3)CC2)c1C,"inconclusive: 29.1 µM [falling, single point]"
13,Cc1ccc(-c2nc3c(c(SCC(=O)N4CCOCC4)n2)Cc2c(CO)cnc(C)c2O3)cc1,inactive
14,Brc1ccc(-c2c[n+]3c(n2-c2ccccc2)SCC3)cc1,"inconclusive: 32.6 µM [falling, single point]"
15,CCCC1C(C#N)=C(N)Oc2cc(C)n(C)c(=O)c21 (configuration not stated),inactive
16,CCN1C(=O)/C(=C2/Sc3ccc(OC)cc3N2C)SC1=Nc1cccc(O)c1,"inconclusive: 16.4 µM [falling, single point]"
17,COc1ccccc1-c1nnc(C2CCN(S(=O)(=O)c3ccc([N+](=O)[O-])cc3)CC2)o1,"inconclusive: 23.1 µM [falling, partial curve, poor fit]"
18,COc1ccccc1C1CC(=O)Nc2cc3c(cc21)OCCO3 (configuration not stated),"inconclusive: 9.2 µM [falling, partial curve, poor fit]"
19,CCCNC(=O)C1CCN(c2ncnc3c2nc2n3CCCCC2)CC1,"inconclusive: 14.6 µM [activator, partial curve, poor fit]"
20,COc1ccc(NC(=O)c2coc(C)c2)cc1,"inconclusive: 18.4 µM [activator, single point]"
21,CCOC(=O)c1sc2ncn(/N=C/c3ccc(O)cc3)c(=O)c2c1C,"inconclusive: 23.1 µM [falling, single point]"
22,C1=C(c2ccccc2)Nc2ncnn2C1c1ccccc1 (configuration not stated),inactive
23,O=C(N=Nc1c(O)[nH]c2ccccc12)c1ccc(CN2CCOCC2)cc1,"inconclusive: 8.2 µM [activator, partial curve, poor fit]"

row,Structure (SMILES),Potency
1,Cc1ccc(OCc2cc(C(=O)Nc3ccccc3)oc2C)cc1,"inconclusive: 7.31 µM [activator, partial curve, poor fit]"
2,O=C(CSc1cccc[n+]1[O-])c1ccc(-c2ccccc2)cc1,"inconclusive: 20.6 µM [activator, single point]"
3,COc1ccc(-c2nc3c4ccccc4[nH]c(=O)n3n2)cc1,"inconclusive: 6.51 µM [activator, partial curve]"
4,CC1SCC(=NOCc2c(Cl)cccc2Cl)CS1 (configuration not stated),"inconclusive: 18.4 µM [activator, partial curve]"
5,CC(=O)Nc1ccc(S(=O)(=O)N2CCN(S(=O)(=O)c3cccs3)CC2)cc1,inactive
6,Clc1ccc(-c2csc(NNC3=NCCCCC3)n2)cc1,inactive
7,O=C(CNC(=O)C(c1ccccc1)c1ccccc1)N/N=C/c1ccc(O)cc1O,"inconclusive: 29.1 µM [falling, single point]"
8,Cc1ccc(S(=O)(=O)NC(CCc2ccccc2)CC(=O)C(C)(C)C)cc1 (configuration not stated),"inconclusive: 29.1 µM [falling, single point]"
9,COc1cccc(/C=C/C(=O)Nc2ccc3c(c2)OCCO3)c1OC,"inconclusive: 0.366 µM [activator, full curve]"
10,O=C(Nc1ccc(N2CCCC2)cc1)c1ccc(Br)o1,"inconclusive: 16.4 µM [activator, partial curve, poor fit]"
11,C=CCC(=O)N1CCCC(CO)(Cc2ccc(F)cc2F)C1 (configuration not stated),inactive
12,C=CCNC1=C(Cl)C(=O)N(Cc2ccccc2)C1=O,inactive
13,Cc1cccc(-c2c3c(=O)n(C)c(=O)n(C)c3cn2-c2cc(N)c(Cl)cc2Cl)c1,"inconclusive: 18.4 µM [falling, single point]"
14,CCC(CC)NC(=O)CON=C1c2ccccc2-c2ccccc21,"inconclusive: 29.1 µM [falling, single point]"
15,Cc1ccc(C)c(Nc2c([N+](=O)[O-])c(=O)oc3ccccc23)c1,"inconclusive: 23.1 µM [activator, partial curve]"
16,CCCCn1cnc2c(SCc3ccc(Br)cc3)nc(N)nc21,active: 18.4 µM
17,CN(C)c1oc(/C=C/c2ccc(F)cc2)nc1C#N,inactive
18,COc1cc(C(=O)NCCSc2ccc(Br)cc2)cc(OC)c1OC,"inconclusive: 5.17 µM [activator, partial curve, poor fit]"
19,Nc1c2c(nc3sc4c(c13)CCCC4)-c1ccccc1CC2,"inconclusive: 23.1 µM [activator, single point]"
20,CC1(C)CC(=O)C2=C(C1)N(N1CCOCC1)C(N)=C(C#N)C2c1cccnc1 (configuration not stated),"inconclusive: 0.231 µM [falling, partial curve, poor fit]"
21,O=C(CCCc1ccccc1)NC1CCSC1=O (configuration not stated),"inconclusive: 29.1 µM [activator, single point]"

# Of the compounds above, these contain a nitro group on carbon.
row,Structure (SMILES),Potency
18,Cc1c(/C=N/NC(=O)COc2ccccc2[N+](=O)[O-])c2ccccc2n1C,"inconclusive: 0.0651 µM [activator, full curve, poor fit]"
17,COc1ccccc1-c1nnc(C2CCN(S(=O)(=O)c3ccc([N+](=O)[O-])cc3)CC2)o1,"inconclusive: 23.1 µM [falling, partial curve, poor fit]"
15,Cc1ccc(C)c(Nc2c([N+](=O)[O-])c(=O)oc3ccccc23)c1,"inconclusive: 23.1 µM [activator, partial curve]"
